The shares of active, inactive and inconclusive entries below differ from those in the screen. A potency beside an inconclusive call is a rough fit, not a confirmed value. Activity calls are given as the source filed them. Unless noted, calls follow the shape of the full dose curve.
Biological target: D(2) dopamine receptor (Homo sapiens) (UniProt P14416)
Test: Dopamine D2 receptor (DRD2) small molecule agonists, cell-based qHTS assay (AID 1963594); also: nearly all actives have a fitted effect of over 35% in size
Settings: HEK293-DRD2 cAMP HTRF, agonist mode, 30 min; activation: at 92.4 µM (top of the series) unless noted
Procedure, shortened: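 HEK293 cells stably expressing human DRD2, pre-treated with PDE inhibitor Ro20-1724 (0.1 mM final) and compound 10 min at room temperature, then stimulated with NKH477 (200nM […]) for 30 min. cAMP read by HTRF (665/620 nm).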
% is scaled to controls: 0 for no effect and ±100 for the full control effect; potency is read from the fitted curve at half-maximal effect.

By UniProt entry, the sequences of proteins in these tests, tags left out.
UniProt P14416, whole entry, looked up: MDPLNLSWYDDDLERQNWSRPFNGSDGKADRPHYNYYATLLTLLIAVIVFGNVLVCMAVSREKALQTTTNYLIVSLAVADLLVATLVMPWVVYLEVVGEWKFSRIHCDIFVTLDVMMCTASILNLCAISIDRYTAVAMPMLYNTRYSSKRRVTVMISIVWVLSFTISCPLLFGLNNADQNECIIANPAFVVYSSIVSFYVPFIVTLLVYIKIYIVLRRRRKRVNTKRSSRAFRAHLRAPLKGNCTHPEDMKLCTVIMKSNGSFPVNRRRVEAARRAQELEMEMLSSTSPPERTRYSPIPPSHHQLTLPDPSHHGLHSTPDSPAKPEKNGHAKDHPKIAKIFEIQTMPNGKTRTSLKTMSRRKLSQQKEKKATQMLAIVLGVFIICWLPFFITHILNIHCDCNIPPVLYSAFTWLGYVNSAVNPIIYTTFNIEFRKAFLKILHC

Row | Compound | Potency | activation
1 | CC(C)c1ccc(C(=O)N=C(N)N)cc1S(C)(=O)=O | inconclusive: 0.121 µM [rising, full curve] | –
2 | COc1cccc(CCc2ccccc2OCC(CN(C)C)OC(=O)CCC(=O)O)c1 (stereo unspecified) | inconclusive: 1.06 µM [rising, full curve] | –
3 | O=C1OC(OC(=O)c2cccnc2Nc2cccc(C(F)(F)F)c2)c2ccccc21 (stereo unspecified) | – | inconclusive: 21.8% [at 42.5 µM]
4 | C[Si](C)(C)C | inconclusive: 10.8 µM [falling, partial curve, poor fit] | –
5 | NCc1ccc(S(N)(=O)=O)cc1 | inactive | –
6 | O=C(OC[C@H]1O[C@@H](OC(=O)c2cc(O)c(O)c(OC(=O)c3cc(O)c(O)c(O)c3)c2)[C@H](OC(=O)c2cc(O)c(O)c(OC(=O)c3cc(O)c(O)c(O)c3)c2)[C@@H](OC(=O)c2cc(O)c(O)c(OC(=O)c3cc(O)c(O)c(O)c3)c2)[C@@H]1OC(=O)c1cc(O)c(O)c(OC(=O)c2cc(O)c(O)c(O)c2)c1)c1cc(O)c(O)c(OC(=O)c2cc(O)c(O)c(O)c2)c1 | inconclusive: 18.5 µM [falling, partial curve, poor fit] | –

Part of the list above, reformatted:

| Row | Compound | Potency | activation |
| --- | --- | --- | --- |
| 2 | COc1cccc(CCc2ccccc2OCC(CN(C)C)OC(=O)CCC(=O)O)c1 (stereo unspecified) | inconclusive: 1.06 µM [rising, full curve] | – |
| 3 | O=C1OC(OC(=O)c2cccnc2Nc2cccc(C(F)(F)F)c2)c2ccccc21 (stereo unspecified) | – | inconclusive: 21.8% [at 42.5 µM] |

Biological target: D(2) dopamine receptor (Homo sapiens) (UniProt P14416)
Test: Dopamine D2 receptor (DRD2) small molecule antagonists, cell-based qHTS assay (AID 1963595; active = well fitted inhibition curve with a large enough effect in the signal ratio in the repeat runs, with a control signal flat; inconclusive = weak or mixed curves, or effect the other way; the % refers to the signal ratio)
Settings: HEK293-DRD2 cAMP HTRF antagonist mode; activity change, negative = inhibition: at 92.4 µM (top of the series) unless noted
Procedure, shortened: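 HEK293 cells stably expressing DRD2 were preincubated with 0.1 mM Ro20-1724, then with compound for 10 min at room temperature. Cells were stimulated with 200 nM NKH477 plus 12 nM quinpirole for 30 min, and cAMP was read by HTRF.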

Row | Compound | Potency
7 | CCCC(C(=O)OCCN(CC)CC)(c1ccccc1)c1ccccc1 | active: 26.6 µM
8 | CN(C)CCCSc1ccccc1NC(=O)/C=C/c1ccccc1 | inconclusive: 15 µM [inhibitor, full curve, poor fit]
9 | O=C(O)c1cc(Cl)cc(Cl)c1 | inactive
10 | O=C(OC[C@H]1O[C@@H](OC(=O)c2cc(O)c(O)c(OC(=O)c3cc(O)c(O)c(O)c3)c2)[C@H](OC(=O)c2cc(O)c(O)c(OC(=O)c3cc(O)c(O)c(O)c3)c2)[C@@H](OC(=O)c2cc(O)c(O)c(OC(=O)c3cc(O)c(O)c(O)c3)c2)[C@@H]1OC(=O)c1cc(O)c(O)c(OC(=O)c2cc(O)c(O)c(O)c2)c1)c1cc(O)c(O)c(OC(=O)c2cc(O)c(O)c(O)c2)c1 | inconclusive: 20.8 µM [cytotoxic, partial curve, poor fit]
11 | OB(O)O | inactive
